Measurements taken from PMC12052686, “NADK tetramer defective mutants affect lung cancer response to chemotherapy via controlling NADK activity” (Genes & Diseases, 2025).
No constants are given. Whether binding was seen depends on the method and setting. For part of these data: In cells and extracts the contact can be indirect. Some entries that bind do so weakly or less than the wild type. For part of these data: Tags and fused reporters may be left off the sequences shown. Blank lines part the entries; values can stand above or below the binder they belong to.

Assays:
NADK R45H mutant (human) = NADK R45H mutant (human) (UniProt O95544); assay: cross-linking; supernatant of sonicated transfected HEK293T cells in PBS, 0.2 mM BS3 on ice for 10 min, quenched with 50 mM Tris-HCl pH 8.0; immunoblotting
[1] = molecular target: NADK C349S mutant (human) (UniProt O95544); assay: as above
[2] = molecular target: HA-NADK full-length (FL), wild type (human) (UniProt O95544); assay: as above
[3] = molecular target: HA-NADK full-length (FL), wild type (human) (UniProt O95544); assay: SEC; lysates of transfected HEK293T cells with endogenous NADK knocked out, Superdex 200 Increase 10/300 GL, 0.5 mL/min; fractions analysed by immunoblotting
[4] = molecular target: NADK Y327A mutant (human) (UniProt O95544); assay: cross-linking; supernatant of sonicated transfected HEK293T cells in PBS, 0.2 mM BS3 on ice for 10 min, quenched with 50 mM Tris-HCl pH 8.0; immunoblotting
[5] = molecular target: NADK D314H mutant (human) (UniProt O95544); assay: as above

B2: NADK C349S mutant (enzyme, UniProt O95544 1-446)
chain: MEMEQEKMTMNKELSPDAAAYCCSACHGDETWSYNHPIRGRAKSRSLSASPALGSTKEFRRTRSLHGPCPVTTFGPKACVLQNPQTIMHIQDPASQRLTWNKSPKSVLVIKKMRDASLLQPFKELCTHLMEENMIVYVEKKVLEDPAIASDESFGAVKKKFCTFREDYDDISNQIDFIICLGGDGTLLYASSLFQGSVPPVMAFHLGSLGFLTPFSFENFQSQVTQVIEGNAAVVLRSRLKVRVVKELRGKKTAVHNGLGENGSQAAGLDMDVGKQAMQYQVLNEVVIDRGPSSYLSNVDVYLDGHLITTVQGDGVIVSTPTGSTAYAAAAGASMIHPNVPAIMITPISPHSLSFRPIVVPAGVELKIMLSPEARNTAWVSFDGRKRQEIRHGDSISITTSCYPLPSICVRDPVSDWFESLAQCLHWNVRKKQAHFEEEEEEEEEG
binding [1]: binds

B3: HA-NADK full-length (FL), wild type (enzyme, UniProt O95544 1-446)
chain: MEMEQEKMTMNKELSPDAAAYCCSACHGDETWSYNHPIRGRAKSRSLSASPALGSTKEFRRTRSLHGPCPVTTFGPKACVLQNPQTIMHIQDPASQRLTWNKSPKSVLVIKKMRDASLLQPFKELCTHLMEENMIVYVEKKVLEDPAIASDESFGAVKKKFCTFREDYDDISNQIDFIICLGGDGTLLYASSLFQGSVPPVMAFHLGSLGFLTPFSFENFQSQVTQVIEGNAAVVLRSRLKVRVVKELRGKKTAVHNGLGENGSQAAGLDMDVGKQAMQYQVLNEVVIDRGPSSYLSNVDVYLDGHLITTVQGDGVIVSTPTGSTAYAAAAGASMIHPNVPAIMITPICPHSLSFRPIVVPAGVELKIMLSPEARNTAWVSFDGRKRQEIRHGDSISITTSCYPLPSICVRDPVSDWFESLAQCLHWNVRKKQAHFEEEEEEEEEG
binding [2]: binds | binding [3]: binds

Results, then the binder that gave them:

binding (NADK R45H mutant (human)): binds
B1: NADK R45H mutant (enzyme, UniProt O95544 1-446)
chain: MEMEQEKMTMNKELSPDAAAYCCSACHGDETWSYNHPIRGRAKSHSLSASPALGSTKEFRRTRSLHGPCPVTTFGPKACVLQNPQTIMHIQDPASQRLTWNKSPKSVLVIKKMRDASLLQPFKELCTHLMEENMIVYVEKKVLEDPAIASDESFGAVKKKFCTFREDYDDISNQIDFIICLGGDGTLLYASSLFQGSVPPVMAFHLGSLGFLTPFSFENFQSQVTQVIEGNAAVVLRSRLKVRVVKELRGKKTAVHNGLGENGSQAAGLDMDVGKQAMQYQVLNEVVIDRGPSSYLSNVDVYLDGHLITTVQGDGVIVSTPTGSTAYAAAAGASMIHPNVPAIMITPICPHSLSFRPIVVPAGVELKIMLSPEARNTAWVSFDGRKRQEIRHGDSISITTSCYPLPSICVRDPVSDWFESLAQCLHWNVRKKQAHFEEEEEEEEEG

binding [4]: binds
B4: NADK Y327A mutant (enzyme, UniProt O95544 1-446)
chain: MEMEQEKMTMNKELSPDAAAYCCSACHGDETWSYNHPIRGRAKSRSLSASPALGSTKEFRRTRSLHGPCPVTTFGPKACVLQNPQTIMHIQDPASQRLTWNKSPKSVLVIKKMRDASLLQPFKELCTHLMEENMIVYVEKKVLEDPAIASDESFGAVKKKFCTFREDYDDISNQIDFIICLGGDGTLLYASSLFQGSVPPVMAFHLGSLGFLTPFSFENFQSQVTQVIEGNAAVVLRSRLKVRVVKELRGKKTAVHNGLGENGSQAAGLDMDVGKQAMQYQVLNEVVIDRGPSSYLSNVDVYLDGHLITTVQGDGVIVSTPTGSTAAAAAAGASMIHPNVPAIMITPICPHSLSFRPIVVPAGVELKIMLSPEARNTAWVSFDGRKRQEIRHGDSISITTSCYPLPSICVRDPVSDWFESLAQCLHWNVRKKQAHFEEEEEEEEEG

binding [5]: binds
B5: NADK D314H mutant (enzyme, UniProt O95544 1-446)
chain: MEMEQEKMTMNKELSPDAAAYCCSACHGDETWSYNHPIRGRAKSRSLSASPALGSTKEFRRTRSLHGPCPVTTFGPKACVLQNPQTIMHIQDPASQRLTWNKSPKSVLVIKKMRDASLLQPFKELCTHLMEENMIVYVEKKVLEDPAIASDESFGAVKKKFCTFREDYDDISNQIDFIICLGGDGTLLYASSLFQGSVPPVMAFHLGSLGFLTPFSFENFQSQVTQVIEGNAAVVLRSRLKVRVVKELRGKKTAVHNGLGENGSQAAGLDMDVGKQAMQYQVLNEVVIDRGPSSYLSNVDVYLDGHLITTVQGHGVIVSTPTGSTAYAAAAGASMIHPNVPAIMITPICPHSLSFRPIVVPAGVELKIMLSPEARNTAWVSFDGRKRQEIRHGDSISITTSCYPLPSICVRDPVSDWFESLAQCLHWNVRKKQAHFEEEEEEEEEG
